Laboratory results from US12257237B2 (priority 2017, dated 2025).
“And” between values parts separate entries of the source, which are not always exact repeats. Identical values can stand only once. The source gives many values for each of these; only a part stands here.

Test system: DD013 dedifferentiated liposarcoma
Test: Antitumour activity in DD013 dedifferentiated liposarcoma xenograft model
Assay type: in vivo, Athymic nude mice
Description: Experiments were performed with female Athymic nude mice, 9-10 weeks old obtained from Harlan Laboratories (Udine, Italy). They were maintained under Specific Pathogen Free conditions with constant temperature and humidity, according to the institutional guidelines.
Tumour growth mice was monitored two/three times a week (depending on tumour growth rate, to avoid unnecessary stress to the animals) by Vernier caliper. Mice were sacrificed when tumour reached a mean weight of 2±0.5 gr. The antitumour activity will be expressed as T/C %, where T and C were the mean tumour weight of treated and control groups, respectively. Mice were monitored daily and weighted at least two times a week. Tolerability was evaluated on the basis of body weight loss (BWL) and clinical observation.
Statistical analysis was performed with GraphPad Prism version 6.01 software (GraphPad software, Inc., La Jolla, CA, USA). ANOVA test was performed to evaluate if there were statistically significant differences between treated and control groups.
Briefly, xenografts were obtained by transplanting 3-4 mm tumour fragments s.c. in the flanks of mice. The growing tumour masses were measured with the aid of a Vernier caliper, and the tumour weights (TW, 1 mm^3=1 mg) were calculated by the formula: length×(width) 2/2. When tumour load achieved about 200-400 mg, mice were randomized into the experimental groups.

Cn1c(CCCCCCC(=O)NO)nc2cc(N(CCCl)CCCl)ccc21 [EDO-S101, 7-(5-(bis(2-chloroethyl)amino)-1-methyl-1H-benzo[d]imidazol-2-yl)-N-hydroxyheptanamide]
DD0113 tumour weight, individual mouse (EDO40: EDO-S101 40 mg/kg q7dx3, day 23 from inoculum, 40 mg/kg): 376.6 mg and 272.5 mg and 234.4 mg and 224.8 mg and 191.1 mg and 172.9 mg and 124.8 mg and 103.7 mg and 86.8 mg | DD0113 tumour weight, individual mouse (EDO40: EDO-S101 40 mg/kg q7dx3, day 26 from inoculum, 40 mg/kg): 541.5 mg and 407.4 mg and 341.7 mg and 312.6 mg and 284.8 mg and 244.9 mg and 208.4 mg and 138.3 mg and 72.8 mg | DD0113 tumour weight, individual mouse (EDO40: EDO-S101 40 mg/kg q7dx3, day 29 from inoculum, 40 mg/kg): 577.2 mg and 528.9 mg and 304.2 mg and 326.8 mg and 350.2 mg and 315.8 mg and 218.0 mg and 150.5 mg and 101.4 mg | DD0113 tumour weight, individual mouse (EDO40: EDO-S101 40 mg/kg q7dx3, day 33 from inoculum, 40 mg/kg): 733.4 mg and 620.3 mg and 386.0 mg and 398.8 mg and 400.6 mg and 410.8 mg and 307.5 mg and 165.2 mg and 127.5 mg | DD0113 tumour weight, individual mouse (EDO40: EDO-S101 40 mg/kg q7dx3, day 36 from inoculum, 40 mg/kg): 740.0 mg and 636.3 mg and 313.7 mg and 375.3 mg and 376.9 mg and 408.8 mg and 294.7 mg and 125.0 mg and 151.8 mg | DD0113 tumour weight, individual mouse (EDO40: EDO-S101 40 mg/kg q7dx3, day 40 from inoculum, 40 mg/kg): 853.1 mg and 647.3 mg and 394.8 mg and 445.1 mg and 470.3 mg and 402.2 mg and 363.7 mg and 150.4 mg and 174.0 mg | DD0113 tumour weight, individual mouse (EDO40: EDO-S101 40 mg/kg q7dx3, day 43 from inoculum, 40 mg/kg): 874.8 mg and 620.0 mg and 382.2 mg and 452.6 mg and 614.9 mg and 419.5 mg and 359.8 mg and 143.6 mg and 194.8 mg | DD0113 tumour weight, individual mouse (EDO40: EDO-S101 40 mg/kg q7dx3, day 47 from inoculum, 40 mg/kg): 951.5 mg and 867.8 mg and 374.0 mg and 447.7 mg and 502.6 mg and 504.6 mg and 551.2 mg and 155.1 mg and 211.9 mg | DD0113 tumour weight, individual mouse (EDO40: EDO-S101 40 mg/kg q7dx3, day 50 from inoculum, 40 mg/kg): 1015.8 mg and 910.3 mg and 477.7 mg and 675.3 mg and 556.8 mg and 593.9 mg and 509.8 mg and 166.1 mg and 228.8 mg | DD0113 tumour weight, individual mouse (EDO40: EDO-S101 40 mg/kg q7dx3, day 54 from inoculum, 40 mg/kg): 1218.3 mg and 849.1 mg and 407.8 mg and 650.3 mg and 641.5 mg and 566.8 mg and 653.1 mg and 138.4 mg and 270.3 mg | DD0113 tumour weight, individual mouse (EDO40: EDO-S101 40 mg/kg q7dx3, day 58 from inoculum, 40 mg/kg): 1198.4 mg and 939.5 mg and 361.1 mg and 647.5 mg and 526.9 mg and 517.8 mg and 678.7 mg and 148.4 mg and 238.9 mg | DD0113 tumour weight, individual mouse (EDO40: EDO-S101 40 mg/kg q7dx3, day 62 from inoculum, 40 mg/kg): 1270.3 mg and 1057.1 mg and 400.9 mg and 778.6 mg and 706.2 mg and 694.4 mg and 795.3 mg and 127.1 mg and 271.1 mg | DD0113 tumour weight, individual mouse (EDO40: EDO-S101 40 mg/kg q7dx3, day 65 from inoculum, 40 mg/kg): 1227.3 mg and 1277.6 mg and 371.1 mg and 690.9 mg and 485.1 mg and 740.8 mg and 906.7 mg and 153.2 mg and 247.5 mg | DD0113 tumour weight, individual mouse (EDO40: EDO-S101 40 mg/kg q7dx3, day 69 from inoculum, 40 mg/kg): 1303.1 mg and 1503.3 mg and 405.2 mg and 866.7 mg and 447.9 mg and 712.8 mg and 742.0 mg and 124.4 mg and 223.2 mg | DD0113 tumour weight, individual mouse (EDO40: EDO-S101 40 mg/kg q7dx3, day 72 from inoculum, 40 mg/kg): 1437.5 mg and 1078.7 mg and 409.0 mg and 909.6 mg and 438.2 mg and 702.4 mg and 638.6 mg and 146.3 mg and 267.4 mg | DD0113 tumour weight, individual mouse (EDO40: EDO-S101 40 mg/kg q7dx3, day 75 from inoculum, 40 mg/kg): 1469.1 mg and 1076.6 mg and 425.4 mg and 836.1 mg and 429.0 mg and 742.0 mg and 670.3 mg and 117.4 mg and 229.4 mg | DD0113 tumour weight, individual mouse (EDO40: EDO-S101 40 mg/kg q7dx3, day 79 from inoculum, 40 mg/kg): 1640.1 mg and 1320.3 mg and 560.8 mg and 876.4 mg and 387.3 mg and 854.9 mg and 755.9 mg and 144.0 mg and 271.2 mg | DD0113 tumour weight, individual mouse (EDO40: EDO-S101 40 mg/kg q7dx3, day 83 from inoculum, 40 mg/kg): 1758.9 mg and 1083.6 mg and 394.8 mg and 1023.8 mg and 391.4 mg and 677.5 mg and 567.8 mg and 83.9 mg and 173.5 mg | DD0113 tumour weight, individual mouse (EDO40: EDO-S101 40 mg/kg q7dx3, day 87 from inoculum, 40 mg/kg): 2103.7 mg and 1649.4 mg and 526.5 mg and 1294.1 mg and 457.1 mg and 994.3 mg and 1055.8 mg and 95.8 mg and 245.9 mg | DD0113 tumour weight, individual mouse (EDO40: EDO-S101 40 mg/kg q7dx3, day 90 from inoculum, 40 mg/kg): 2135.1 mg and 1918.5 mg and 598.6 mg and 1450.6 mg and 463.8 mg and 1104.6 mg and 1165.7 mg and 119.3 mg and 249.5 mg | DD0113 tumour weight, individual mouse (EDO40: EDO-S101 40 mg/kg q7dx3, day 94 from inoculum, 40 mg/kg): 2516.4 mg and 2036.1 mg and 820.3 mg and 1686.1 mg and 542.4 mg and 1322.5 mg and 1662.8 mg and 133.6 mg and 318.3 mg | DD0113 tumour weight, individual mouse (EDO40: EDO-S101 40 mg/kg q7dx3, day 98 from inoculum, 40 mg/kg): 2716.0 mg and 1993.4 mg and 913.4 mg and 1775.6 mg and 446.5 mg and 1827.2 mg and 1853.1 mg and 145.4 mg and 371.6 mg | DD0113 tumour weight, individual mouse (EDO40: EDO-S101 40 mg/kg q7dx3, day 100 from inoculum, 40 mg/kg): 3162.4 mg and 2274.9 mg and 963.9 mg and 2276.4 mg and 533.5 mg and 2007.9 mg and 2178.4 mg and 160.4 mg and 419.7 mg | DD0113 tumour weight, individual mouse (EDO60: EDO-S101 60 mg/kg q7dx3, day 23 from inoculum, 60 mg/kg): 390.7 mg and 270.8 mg and 256.0 mg and 208.0 mg and 186.9 mg and 149.8 mg and 137.4 mg and 98.0 mg and 95.4 mg | DD0113 tumour weight, individual mouse (EDO60: EDO-S101 60 mg/kg q7dx3, day 26 from inoculum, 60 mg/kg): 581.5 mg and 439.5 mg and 349.4 mg and 277.6 mg and 282.9 mg and 149.7 mg and 162.1 mg and 93.0 mg and 117.1 mg | DD0113 tumour weight, individual mouse (EDO60: EDO-S101 60 mg/kg q7dx3, day 29 from inoculum, 60 mg/kg): 713.8 mg and 542.7 mg and 408.5 mg and 245.2 mg and 337.8 mg and 127.5 mg and 180.6 mg and 129.5 mg and 107.7 mg
